Article PMC10807196
Like-named read-outs stand apart in the source and are kept apart here. These are yes or no findings as the source states them, for the method shown. Binding seen in cells or lysates may run through a third protein. A yes stands for co-enrichment or nearness to the bait. Other partners may have been found.

Amino acid sequences for entries named in this document (tags omitted). Residues count along the entry.
UniProt Q12864, residues 23-832: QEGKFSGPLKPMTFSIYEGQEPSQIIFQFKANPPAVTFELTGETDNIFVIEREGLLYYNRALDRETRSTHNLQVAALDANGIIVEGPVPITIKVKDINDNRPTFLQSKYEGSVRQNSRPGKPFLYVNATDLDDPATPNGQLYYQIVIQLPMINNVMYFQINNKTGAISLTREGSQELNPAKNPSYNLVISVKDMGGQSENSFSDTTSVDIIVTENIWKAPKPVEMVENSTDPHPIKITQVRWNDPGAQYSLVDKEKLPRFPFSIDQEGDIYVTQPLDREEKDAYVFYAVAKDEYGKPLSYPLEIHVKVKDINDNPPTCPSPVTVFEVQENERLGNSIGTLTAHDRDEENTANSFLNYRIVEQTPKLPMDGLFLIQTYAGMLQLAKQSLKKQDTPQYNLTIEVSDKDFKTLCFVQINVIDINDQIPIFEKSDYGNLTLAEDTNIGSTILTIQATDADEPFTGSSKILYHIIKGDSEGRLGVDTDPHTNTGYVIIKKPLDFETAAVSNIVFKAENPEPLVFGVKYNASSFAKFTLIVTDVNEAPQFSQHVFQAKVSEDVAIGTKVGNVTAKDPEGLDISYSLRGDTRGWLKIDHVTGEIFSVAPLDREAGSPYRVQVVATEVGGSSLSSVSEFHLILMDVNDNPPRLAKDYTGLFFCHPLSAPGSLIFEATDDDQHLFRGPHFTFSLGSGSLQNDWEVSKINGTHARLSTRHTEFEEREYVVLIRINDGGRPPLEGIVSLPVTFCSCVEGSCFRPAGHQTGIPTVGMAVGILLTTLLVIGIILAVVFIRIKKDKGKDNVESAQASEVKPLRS
UniProt Q9Y490: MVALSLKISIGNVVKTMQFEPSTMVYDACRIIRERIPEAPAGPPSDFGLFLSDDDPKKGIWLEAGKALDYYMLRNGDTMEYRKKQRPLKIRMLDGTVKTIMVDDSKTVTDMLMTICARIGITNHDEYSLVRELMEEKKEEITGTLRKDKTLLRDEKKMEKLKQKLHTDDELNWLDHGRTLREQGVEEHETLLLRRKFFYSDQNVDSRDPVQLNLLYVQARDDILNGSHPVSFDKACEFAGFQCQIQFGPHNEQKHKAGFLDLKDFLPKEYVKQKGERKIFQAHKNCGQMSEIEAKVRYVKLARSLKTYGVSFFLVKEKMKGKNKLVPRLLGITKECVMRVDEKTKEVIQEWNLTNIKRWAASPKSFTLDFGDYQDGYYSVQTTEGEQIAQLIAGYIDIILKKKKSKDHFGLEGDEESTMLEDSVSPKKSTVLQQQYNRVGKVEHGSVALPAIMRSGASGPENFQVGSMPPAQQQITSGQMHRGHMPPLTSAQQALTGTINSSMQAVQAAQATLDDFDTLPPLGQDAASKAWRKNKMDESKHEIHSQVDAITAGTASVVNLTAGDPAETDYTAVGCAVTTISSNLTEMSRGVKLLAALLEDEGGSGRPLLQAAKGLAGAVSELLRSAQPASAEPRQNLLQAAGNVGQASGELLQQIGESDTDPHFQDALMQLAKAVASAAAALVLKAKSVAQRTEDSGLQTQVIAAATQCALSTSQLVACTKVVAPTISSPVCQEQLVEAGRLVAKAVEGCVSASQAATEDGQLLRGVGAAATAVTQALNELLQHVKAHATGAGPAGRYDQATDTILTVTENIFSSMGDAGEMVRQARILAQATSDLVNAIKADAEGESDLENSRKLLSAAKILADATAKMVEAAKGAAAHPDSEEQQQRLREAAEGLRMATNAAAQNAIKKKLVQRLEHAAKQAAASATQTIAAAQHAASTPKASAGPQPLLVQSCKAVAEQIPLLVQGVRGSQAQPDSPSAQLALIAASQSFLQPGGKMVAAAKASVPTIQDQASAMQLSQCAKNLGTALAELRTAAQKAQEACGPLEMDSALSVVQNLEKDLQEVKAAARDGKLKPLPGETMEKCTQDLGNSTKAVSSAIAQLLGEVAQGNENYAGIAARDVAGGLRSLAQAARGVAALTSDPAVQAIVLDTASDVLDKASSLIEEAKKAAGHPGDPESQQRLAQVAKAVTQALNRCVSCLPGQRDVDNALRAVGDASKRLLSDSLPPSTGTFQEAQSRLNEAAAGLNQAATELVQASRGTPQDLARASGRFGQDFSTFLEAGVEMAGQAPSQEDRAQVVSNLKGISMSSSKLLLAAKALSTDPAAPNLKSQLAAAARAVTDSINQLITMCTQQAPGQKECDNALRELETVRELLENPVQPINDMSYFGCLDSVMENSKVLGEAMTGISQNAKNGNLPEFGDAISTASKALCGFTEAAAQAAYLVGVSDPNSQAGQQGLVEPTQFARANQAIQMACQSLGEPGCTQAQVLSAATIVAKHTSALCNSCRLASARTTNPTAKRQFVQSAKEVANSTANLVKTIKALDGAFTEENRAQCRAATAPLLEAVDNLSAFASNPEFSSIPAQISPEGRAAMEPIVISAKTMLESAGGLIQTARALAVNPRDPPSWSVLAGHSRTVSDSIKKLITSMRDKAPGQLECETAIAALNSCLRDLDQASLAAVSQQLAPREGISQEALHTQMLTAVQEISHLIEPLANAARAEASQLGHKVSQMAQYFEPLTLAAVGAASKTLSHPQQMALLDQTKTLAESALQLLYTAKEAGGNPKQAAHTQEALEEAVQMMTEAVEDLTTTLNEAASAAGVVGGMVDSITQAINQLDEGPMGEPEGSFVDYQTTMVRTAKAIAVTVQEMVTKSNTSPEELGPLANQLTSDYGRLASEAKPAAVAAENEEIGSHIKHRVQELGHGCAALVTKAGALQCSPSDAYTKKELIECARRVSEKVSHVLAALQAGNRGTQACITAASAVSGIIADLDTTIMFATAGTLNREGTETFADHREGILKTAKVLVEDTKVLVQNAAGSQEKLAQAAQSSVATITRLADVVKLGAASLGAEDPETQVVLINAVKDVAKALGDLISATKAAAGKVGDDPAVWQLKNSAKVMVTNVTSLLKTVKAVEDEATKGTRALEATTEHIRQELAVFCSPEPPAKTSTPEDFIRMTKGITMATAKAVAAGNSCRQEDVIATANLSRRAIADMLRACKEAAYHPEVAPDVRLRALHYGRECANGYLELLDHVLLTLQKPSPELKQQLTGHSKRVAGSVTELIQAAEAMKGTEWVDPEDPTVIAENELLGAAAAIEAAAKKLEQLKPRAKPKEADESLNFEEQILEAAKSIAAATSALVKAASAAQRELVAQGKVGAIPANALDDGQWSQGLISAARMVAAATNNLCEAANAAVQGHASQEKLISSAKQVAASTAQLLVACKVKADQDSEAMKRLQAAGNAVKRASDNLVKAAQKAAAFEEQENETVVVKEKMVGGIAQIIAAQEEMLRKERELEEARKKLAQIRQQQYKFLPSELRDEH
UniProt P07737: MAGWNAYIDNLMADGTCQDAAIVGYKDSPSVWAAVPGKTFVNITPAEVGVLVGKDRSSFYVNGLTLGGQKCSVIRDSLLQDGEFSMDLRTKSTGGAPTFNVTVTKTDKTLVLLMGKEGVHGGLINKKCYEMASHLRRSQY
UniProt Q9P258: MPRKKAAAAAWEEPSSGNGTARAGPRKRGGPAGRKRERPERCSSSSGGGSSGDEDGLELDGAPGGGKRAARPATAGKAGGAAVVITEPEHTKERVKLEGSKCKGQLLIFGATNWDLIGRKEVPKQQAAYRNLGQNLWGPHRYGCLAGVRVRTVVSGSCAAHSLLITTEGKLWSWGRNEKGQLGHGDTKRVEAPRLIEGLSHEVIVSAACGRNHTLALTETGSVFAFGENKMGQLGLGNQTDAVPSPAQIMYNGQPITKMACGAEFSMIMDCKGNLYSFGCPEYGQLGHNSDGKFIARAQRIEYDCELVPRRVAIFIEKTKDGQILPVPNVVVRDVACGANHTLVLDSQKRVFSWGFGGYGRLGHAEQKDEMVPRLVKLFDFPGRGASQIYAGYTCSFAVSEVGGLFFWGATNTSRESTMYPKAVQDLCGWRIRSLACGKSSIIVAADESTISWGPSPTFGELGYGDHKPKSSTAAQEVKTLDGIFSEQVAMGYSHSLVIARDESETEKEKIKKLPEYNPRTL
UniProt P60953: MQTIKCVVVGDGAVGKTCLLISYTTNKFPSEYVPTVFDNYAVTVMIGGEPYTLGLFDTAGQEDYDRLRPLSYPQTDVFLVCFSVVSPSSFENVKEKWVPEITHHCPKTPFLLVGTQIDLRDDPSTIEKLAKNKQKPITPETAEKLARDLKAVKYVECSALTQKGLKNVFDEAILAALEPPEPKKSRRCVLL
UniProt P35579: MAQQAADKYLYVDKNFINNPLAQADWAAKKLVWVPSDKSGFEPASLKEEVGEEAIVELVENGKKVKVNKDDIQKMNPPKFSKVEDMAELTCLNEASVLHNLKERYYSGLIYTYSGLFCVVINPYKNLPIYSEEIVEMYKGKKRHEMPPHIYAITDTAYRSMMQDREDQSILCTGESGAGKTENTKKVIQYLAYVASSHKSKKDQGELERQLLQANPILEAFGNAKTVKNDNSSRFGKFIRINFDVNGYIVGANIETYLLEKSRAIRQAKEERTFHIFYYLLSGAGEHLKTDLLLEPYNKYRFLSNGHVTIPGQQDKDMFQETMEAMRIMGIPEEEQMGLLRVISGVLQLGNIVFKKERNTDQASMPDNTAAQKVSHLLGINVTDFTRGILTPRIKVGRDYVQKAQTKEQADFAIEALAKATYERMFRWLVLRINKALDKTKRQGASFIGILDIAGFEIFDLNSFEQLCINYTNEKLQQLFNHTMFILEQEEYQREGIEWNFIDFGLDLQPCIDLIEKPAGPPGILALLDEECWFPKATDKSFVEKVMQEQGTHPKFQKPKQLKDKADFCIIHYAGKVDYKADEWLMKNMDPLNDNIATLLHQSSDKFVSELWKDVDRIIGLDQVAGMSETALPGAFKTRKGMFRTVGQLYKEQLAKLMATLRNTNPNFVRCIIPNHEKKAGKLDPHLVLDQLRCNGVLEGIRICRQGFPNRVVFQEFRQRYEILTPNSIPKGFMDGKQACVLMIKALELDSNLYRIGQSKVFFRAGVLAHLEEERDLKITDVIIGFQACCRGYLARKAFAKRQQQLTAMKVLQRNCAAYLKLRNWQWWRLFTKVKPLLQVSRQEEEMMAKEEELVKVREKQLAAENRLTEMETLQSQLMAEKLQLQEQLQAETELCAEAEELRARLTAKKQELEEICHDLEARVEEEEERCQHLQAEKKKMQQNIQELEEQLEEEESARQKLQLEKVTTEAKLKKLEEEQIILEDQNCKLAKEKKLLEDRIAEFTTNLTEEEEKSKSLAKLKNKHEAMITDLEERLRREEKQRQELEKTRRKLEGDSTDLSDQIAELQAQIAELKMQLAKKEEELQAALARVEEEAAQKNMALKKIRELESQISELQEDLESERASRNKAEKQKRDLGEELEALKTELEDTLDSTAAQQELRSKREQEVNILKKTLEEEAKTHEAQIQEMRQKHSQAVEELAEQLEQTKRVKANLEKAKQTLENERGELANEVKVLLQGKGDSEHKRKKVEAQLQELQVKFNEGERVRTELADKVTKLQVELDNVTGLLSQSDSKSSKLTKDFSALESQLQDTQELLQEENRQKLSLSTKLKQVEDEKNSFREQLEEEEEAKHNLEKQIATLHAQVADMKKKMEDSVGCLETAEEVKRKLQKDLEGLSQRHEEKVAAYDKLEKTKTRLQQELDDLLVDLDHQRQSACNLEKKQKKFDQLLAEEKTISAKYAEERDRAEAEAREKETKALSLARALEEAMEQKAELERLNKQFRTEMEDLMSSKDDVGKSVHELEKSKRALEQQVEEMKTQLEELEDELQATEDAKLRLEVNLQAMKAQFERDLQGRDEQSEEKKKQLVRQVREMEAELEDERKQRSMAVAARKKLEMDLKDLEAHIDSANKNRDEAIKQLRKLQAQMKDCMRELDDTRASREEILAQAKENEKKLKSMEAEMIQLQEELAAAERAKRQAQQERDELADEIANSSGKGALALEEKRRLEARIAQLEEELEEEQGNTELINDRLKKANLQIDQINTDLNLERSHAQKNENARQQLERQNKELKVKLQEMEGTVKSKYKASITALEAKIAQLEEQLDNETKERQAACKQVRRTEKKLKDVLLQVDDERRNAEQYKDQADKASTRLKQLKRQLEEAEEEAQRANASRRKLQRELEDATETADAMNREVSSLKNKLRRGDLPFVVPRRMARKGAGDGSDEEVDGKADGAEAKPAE

Assays:
[1] = molecular target: Cadherin-17 (CDH17), full-length, overexpressed (human) (UniProt Q12864); test: affinity purification with mass spectrometry; lysates of RKO and HT-29 cells transfected with CDH17 vectors, immunoprecipitated with anti-CDH17 or control antibody; in-gel trypsin digestion; positive when at least twice more unique peptides than the control IP
[2] = molecular target: Cadherin-17 (CDH17), full-length, overexpressed (human) (UniProt Q12864); test: as above; remark: listed apart in the source

Row | binding [1] | binding [2] | Molecule
1 | binds | – | TLN1 (from UniProt Q9Y490 1-2541)
2 | binds | – | TUBB2C (from UniProt P68371 1-445)
3 | binds | – | PFN1 (from UniProt P07737 1-140)
4 | binds | – | TUBA1C (from UniProt Q9BQE3 1-449)
5 | binds | – | RCC2 (from UniProt Q9P258 1-522)
6 | binds | – | CDC42 (from UniProt P60953 1-191)
7 | binds | – | TUBB5 (from UniProt P07437 1-444)
8 | binds | – | SPTAN1 (from UniProt Q13813 1-2472)
9 | binds | – | ACTN1 (from UniProt P12814 1-892)
10 | binds | – | IQGAP1 (from UniProt P46940 1-1657)
11 | binds | – | MYH9 (from UniProt P35579 1-1960)
12 | – | binds | junction plakoglobin (JUP) (protein, UniProt P14923 1-745) MEVMNLMEQPIKVTEWQQTYTYDSGIHSGANTCVPSVSSKGIMEEDEACGRQYTLKKTTTYTQGVPPSQGDLEYQMSTTARAKRVREAMCPGVSGEDSSLLLATQVEGQATNLQRLAEPSQLLKSAIVHLINYQDDAELATRALPELTKLLNDEDPVVVTKAAMIVNQLSKKEASRRALMGSPQLVAAVVRTMQNTSDLDTARCTTSILHNLSHHREGLLAIFKSGGIPALVRMLSSPVESVLFYAITTLHNLLLYQEGAKMAVRLADGLQKMVPLLNKNNPKFLAITTDCLQLLAYGNQESKLIILANGGPQALVQIMRNYSYEKLLWTTSRVLKVLSVCPSNKPAIVEAGGMQALGKHLTSNSPRLVQNCLWTLRNLSDVATKQEGLESVLKILVNQLSVDDVNVLTCATGTLSNLTCNNSKNKTLVTQNSGVEALIHAILRAGDKDDITEPAVCALRHLTSRHPEAEMAQNSVRLNYGIPAIVKLLNQPNQWPLVKATIGLIRNLALCPANHAPLQEAAVIPRLVQLLVKAHQDAQRHVAAGTQQPYTDGVRMEEIVEGCTGALHILARDPMNRMEIFRLNTIPLFVQLLYSSVENIQRVAAGVLCELAQDKEAADAIDAEGASAPLMELLHSRNEGTATYAAAVLFRISEDKNPDYRKRVSVELTNSLFKHDPAAWEAAQSMIPINEPYGDDMDATYRPMYSSDVPLDPLEMHMDMDGDYPIDTYSDGLRPPYPTADHMLA
13 | – | binds | desmocollin-1 (DSC1) (protein, UniProt Q08554 135-894) RWAPIPASLMENSLGPFPQHVQQIQSDAAQNYTIFYSISGPGVDKEPFNLFYIEKDTGDIFCTRSIDREKYEQFALYGYATTADGYAPEYPLPLIIKIEDDNDNAPYFEHRVTIFTVPENCRSGTSVGKVTATDLDEPDTLHTRLKYKILQQIPDHPKHFSIHPDTGVITTTTPFLDREKCDTYQLIMEVRDMGGQPFGLFNTGTITISLEDENDNPPSFTETSYVTEVEENRIDVEILRMKVQDQDLPNTPHSKAVYKILQGNENGNFIISTDPNTNEGVLCVVKPLNYEVNRQVILQVGVINEAQFSKAASSQTPTMCTTTVTVKIIDSDEGPECHPPVKVIQSQDGFPAGQELLGYKALDPEISSGEGLRYQKLGDEDNWFEINQHTGDLRTLKVLDRESKFVKNNQYNISVVAVDAVGRSCTGTLVVHLDDYNDHAPQIDKEVTICQNNEDFAVLKPVDPDGPENGPPFQFFLDNSASKNWNIEEKDGKTAILRQRQNLDYNYYSVPIQIKDRHGLVATHMLTVRVCDCSTPSECRMKDKSTRDVRPNVILGRWAILAMVLGSVLLLCILFTCFCVTAKRTVKKCFPEDIAQQNLIVSNTEGPGEEVTEANIRLPMQTSNICDTSMSVGTVGGQGIKTQQSFEMVKGGYTLDSNKGGGHQTLESVKGVGQGDTGRYAYTDWQSFTQPRLGEKVYLCGQDEEHKHCEDYVCSYNYEGKGSLAGSVGCCSDRQEEEGLEFLDHLEPKFRTLAKTCIKK
